Here are results for two molecules from article PMC10746753 (Pharmaceutical Research, 2023).

The subject of the series is Caco-2 cells (TC-7 clone). Nature of the series: Caco-2 permeability. The following applies: presence of cyclosporine A. The series is classed as in vitro ADME, human.

Regarding `CC(C)NCC(O)COc1cccc2ccccc12` (stereo not shown) [Propranolol], the “Recovery A→B” value turned out to be 92.4% and the “Recovery B→A” value is given as 85.6%.

As to `CC(C)NCC(O)COc1cccc2[nH]ccc12` (stereo not shown) [Pindolol], the “Recovery A→B” value is 104% and the “Recovery B→A” value is given as 95.5%.
